# US6342481B1, “Oligopeptides derived from C-reactive protein fragments” (priority 1993, dated 2002)
# At least one peptide structure holds a part that was inferred or is arguable (an end, a ring closure or a residue).
# Tested on: Wistar rats with left coronary artery ligation
# Test: Cardioprotective activity following ischemia induced by occlusion of the left coronary artery in the anesthetized rat
# Assay type: in vivo
# Settings: anesthetized male Wistar rats, 0.1 μg/kg/min i.v., left coronary artery ligated for 30 minutes; for Incidence % V.F. (ventricular fibrillations): control 86; for Incidence % V.T. (ventricular tachycardia): control 100
# From the text: The cardiovascular activity of the compounds of the invention was investigated by means of a test aiming at evaluating the cardioprotective activity following ischemia induced by the occlusion of the left coronary artery in the anestethized rat, performed substantially as described by C. Clark et al. Journ. Exp. Methods, 3, 357, 1980. It is known that the occlusion of the coronary artery causes several events altering the ECG-pattern including, among others, hypoxia, arrhythmias, with eventual death of the laboratory animals.
# In this test, male Wistar rats, (350-450 g, Charles River) were divided into groups of at least 18 animals, anestethized with nembutal (65 mg/kg i.p.) and each connected to an electrocardiograph for continuously monitoring the ECG. The animals, maintained under artificial ventilation, underwent thoracotomy and, after incision of the pericardium, a suture thread was passed around the left coronary artery, near to its origins. The animals were then administered intravenously with 0.1 μg/kg/min of the compounds of the invention dissolved in saline. One group of animals (control group) were administered intravenously with saline (5 ml/kg/hr). After 15 minutes recovery, and provided that electocardiographic alteration was not recorded, the left coronary artery was ligated and the ligature was maintained for 30 minutes. During this period the animals were monitored and ventricular tachycardia (VT), ventricular fibrillations (VF) and mortality were7 assessed.
Compound,Incidence % V.F. (ventricular fibrillations) [%],Incidence % V.T. (ventricular tachycardia) [%]
"CCN(C(=O)CN)[C@@H](CCCCN)C(=O)N1CCC[C@H]1C(=O)NCCCCNC(=N)N [Example 5, H-Gly-(Et)Lys-Pro-Agm.3AcOH]",0,78
"CCN(C(=O)[C@@H](N)CC(C)C)[C@@H](CCCCN)C(=O)N1CCC[C@H]1C(=O)N[C@@H](CCCNC(=N)N)C(=O)O [Example 7, H-Leu-(Et)Lys-Pro-Arg-OH.2AcOH]",50,100
"CC(C)CN(C(=O)CN)[C@@H](CCCCN)C(=O)N1CCC[C@H]1C(=O)N[C@@H](CCCNC(=N)N)C(=O)O [Example 8, H-Gly-(isoBu)Lys-Pro-Arg-OH.2AcOH]",38,100
"CCN(C(=O)CN)[C@@H](CCCCN)C(=O)N1CCC[C@H]1C(=O)N[C@H](CCCNC(=N)N)C(=O)O [Example 13, H-Gly-(Et)Lys-Pro-DArg-OH.2AcOH]",50,100
